According to publication PMC3840065, “Structural Insights into the Mechanism for Recognizing Substrate of the Cytochrome P450 Enzyme TxtE” (PLoS ONE, 2013):
Results are given in words; binding and its absence hold for the method and conditions named. Tags and fused reporters may be left off the sequences shown.

Target: TxtE, cytochrome P450 enzyme from Streptomyces scabies 87.22 (wild type) (Streptomyces scabies 87.22) (UniProt C9ZDC6)
Experiment: SEC; gel filtration; conditions not told for this result (the purification used Superdex 75 16/60 in 25 mM Tris-HCl pH 8.0, 150 mM NaCl, 5% glycerol); both purified

B1: TxtE, cytochrome P450 enzyme from Streptomyces scabies 87.22 (wild type) (enzyme, UniProt C9ZDC6 1-406)
chain: MTVPSPLADPSIVPDPYPVYADLAQRRPVHWVERLNAWAVLTYADCAAGLKDPRLTADRGTEVLAAKFPGQPLPPDNIFHRWTKNVVMYTDPPLHDALRRSVRAGFTRAAHQHYDQVLQKVAHDLVASIPAGATEIDAVPALAAELPVRSAVHAFGVPEEDLGFLIPRVNTIMTYHSGPKDQPVTQEIILEKLTDLHTYASELLQGMRGKVLPDTVIARLAAAQDGLTETTPEQTVHQLALVFIALFAPTTPGSLSSGTLAFARNPRQVERFLADQACVDNTANEVLRYNASNQFTWRVAAKDVEMGGVRIEAGQTLALFLGSANRDANMFERPNDFDLDRPNSARHLSFGQGVHACLAAQLISLQLKWFYVALLNRFPGIRTAGEPIWNENLEFRSLRSLPLSLR
- binding: no binding
